Assay results published in patent US10329278B2, “Pharmaceutical compounds” (Heptares Therapeutics Limited, priority 2017, dated 2019).
Certain results were filed several times, with different values. This list holds those alone. An entry can have further records. The records of an entry differ for a reason that is not stated; some may be repeats, others may stem from another dose, organism or construct than stated.

Amino acid sequences for entries named in this document (tags omitted).
UniProt P11229, whole entry: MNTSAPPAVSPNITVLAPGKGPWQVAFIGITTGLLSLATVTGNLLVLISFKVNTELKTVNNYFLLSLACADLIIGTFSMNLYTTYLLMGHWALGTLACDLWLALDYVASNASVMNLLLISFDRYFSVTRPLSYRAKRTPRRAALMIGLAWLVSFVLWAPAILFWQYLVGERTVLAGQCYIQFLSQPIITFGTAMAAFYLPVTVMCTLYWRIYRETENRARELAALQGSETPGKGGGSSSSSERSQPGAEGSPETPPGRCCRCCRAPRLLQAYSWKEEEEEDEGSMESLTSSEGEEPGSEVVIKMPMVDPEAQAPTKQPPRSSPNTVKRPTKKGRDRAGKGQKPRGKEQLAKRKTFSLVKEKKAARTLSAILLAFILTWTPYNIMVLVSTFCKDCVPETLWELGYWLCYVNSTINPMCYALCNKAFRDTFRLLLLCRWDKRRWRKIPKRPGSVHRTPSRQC
UniProt P08173, whole entry: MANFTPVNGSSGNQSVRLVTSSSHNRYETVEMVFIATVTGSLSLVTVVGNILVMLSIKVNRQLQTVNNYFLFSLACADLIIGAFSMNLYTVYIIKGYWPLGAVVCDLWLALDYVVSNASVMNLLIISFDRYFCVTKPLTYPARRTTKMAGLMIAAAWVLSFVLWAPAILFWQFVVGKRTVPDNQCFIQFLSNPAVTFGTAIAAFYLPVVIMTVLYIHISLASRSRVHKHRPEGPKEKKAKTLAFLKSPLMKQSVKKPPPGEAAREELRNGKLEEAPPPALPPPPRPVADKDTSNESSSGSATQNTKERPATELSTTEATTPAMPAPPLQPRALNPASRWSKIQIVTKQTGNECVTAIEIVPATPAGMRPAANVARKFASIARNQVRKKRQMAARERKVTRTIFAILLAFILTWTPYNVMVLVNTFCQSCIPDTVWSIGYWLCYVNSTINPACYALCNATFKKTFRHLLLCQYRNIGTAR

Legend:
[1] = biological target: human muscarinic M1 receptor (Homo sapiens, UniProt P11229); experiment: Alphascreen Surefire phospho-ERK1/2 functional assay, M1; details: CHO cells stably expressing human M1
[2] = biological target: human muscarinic M4 receptor (Homo sapiens, UniProt P08173); experiment: Alphascreen Surefire phospho-ERK1/2 functional assay, M4; assay type: cell-based; details: CHO cells stably expressing human M4

## CCOC(=O)N1CCC2(CC(N3C[C@@H]4[C@H](C3)[C@H]4C(=O)N(C)CC)C2)C1 (single isomer, unassigned)
[1]; agonist 5 min, 37° C.
  pEC50 M1: 4.70 and 7.25
[1]; relative to ACh
  % Emax cf. ACh (M1): 26% and 107%
[2]; agonist 5 min, 37° C.
  pEC50 M4: 5.71 and 6.72
[2]; relative to ACh
  % Emax cf. ACh (M4): 37% and 85%
